Assay results from article PMC5880107, “The Sequence-specific Peptide-binding Activity of the Protein Sulfide Isomerase AGR2 Directs Its Stable Binding to the Oncogenic Receptor EpCAM*^([image sbox.jpg])” (Molecular & Cellular Proteomics : MCP, 2018).
Results are given in words; binding and its absence hold for the method and conditions named. In cells and extracts the contact can be indirect. Some entries that bind do so weakly or less than the wild type.

T1: biotinylated Peptide A4 (AGR2-binding peptide aptamer, …)
T1 sequence (peptide, biotin (end not stated)): HLPTTIYYGPPG

T2: endogenous AGR2 of MCF7 cells (human (endogenous in MCF7)), O95994
T2 chain: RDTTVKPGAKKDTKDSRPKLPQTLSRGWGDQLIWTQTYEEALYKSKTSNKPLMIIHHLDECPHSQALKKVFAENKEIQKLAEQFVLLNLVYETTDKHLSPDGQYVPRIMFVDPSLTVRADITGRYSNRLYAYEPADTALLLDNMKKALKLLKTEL

B1: endogenous AGR2 of MCF7 cells, O95994 21-175 (protein)
chain: T2 chain

How the values were obtained:
[1] = biological target: T1, biotinylated Peptide A4 (AGR2-binding peptide aptamer, …); assay: pull-down; biotinylated peptide A4 on streptavidin beads incubated with MCF7 lysates (Tris-HCl pH 8.0, 1% Nonidet P-40); cells pre-treated with DMSO or the cross-linker DSS; eluates immunoblotted for AGR2 and silver stained; only the target purified
[2] = biological target: T2, endogenous AGR2 of MCF7 cells (human …); assay: cross-linking; MCF7 cells incubated with the cell-membrane permeable cross-linker DSS for 1 h at 37 °C; 36 kDa band affinity purified, excised and analysed by MALDI-TOF mass spectrometry; conditions: remark: other sources report otherwise

| Molecule | binding [1] | binding [2] |
| --- | --- | --- |
| DSS cross-linked dimer of endogenous AGR2 from MCF7 cells (from UniProt O95994 21-175) (complex) | binds |  |
| endogenous AGR2 of MCF7 cells (from UniProt O95994 21-175) | binds |  |
| B1 |  | binds |
